Data from PubChem BioAssay AID504834 (National Center for Advancing Translational Sciences (NCATS), 2011).
Screen size: about 320,000 compounds; about 22,000 (6.9%) were called active. This list was built around the results that the source calls inconclusive (neither active nor inactive); the mix of calls is not that of the screen. The call rests on the fitted dose curve; in most records, active means well fitted inhibition curve with a large enough effect; inconclusive means small, poorly fitted or top-dose-only effect, or another doubt; inactive means no such curve, though single readings can be large or run the other way. Potencies of inconclusive entries are doubtful fits and often do not repeat.
On the % scale 0 is the no-effect control and ±100 the full control effect; potency means the concentration at half of the fitted maximal effect.

Assay: Primary qHTS for delayed death inhibitors of the malarial parasite plastid, 96 hour incubation
Conditions: P. falciparum luciferase reporter growth; series mostly up to 28.7 µM; activity change, negative = inhibition: at the top concentration
Summary of the method: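 Cell-based qHTS: luciferase-tagged P. falciparum in erythrocytes (2% hematocrit, 0.05% parasitemia final) incubated with compounds for 96 hours, 37 C, 5% CO2; luciferase detection reagent then added and luminescence measured.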
With O=C(Cc1c(F)cccc1Cl)Nc1cc(S(=O)(=O)N2CCOCC2)ccc1N1CCOCC1 the “activity change, negative = inhibition” value was inactive: -8.05%.
For COc1cc(/C=C/C(=O)N2CCN(C)CC2)cc(S(=O)(=O)N2CCc3ccccc32)c1OC, the Potency was inconclusive: 18.5 µM [inhibitor, single point].
In the case of CSc1nccc(Oc2ccc(C#N)cc2)n1, the “activity change, negative = inhibition” value is reported as inactive: 8.42%.
For CN(C)C(=O)Oc1ccc(Br)c2ccccc12, the Potency was inconclusive: 0.0059 µM [inhibitor, full curve, poor fit].
For COc1cc(SC#N)ccc1N=Cc1c(C)[nH]n(-c2ccc(C)cc2C)c1=O, the Potency was inconclusive: 1.17 µM [inhibitor, partial curve, poor fit].
For COc1ccc(NC(=O)CSc2ccc(-c3ccccn3)nn2)cc1OC, the Potency was inconclusive: 14.7 µM [inhibitor, single point].
In the case of Cc1ccc(NC(=O)CCC(=O)N2CCC(c3ccccc3)=N2)cc1S(=O)(=O)N1CCCCC1, the Potency is reported as inconclusive: 18.5 µM [inhibitor, single point].
With CN(Cc1ccncn1)C(=O)C1CCC(=O)N(Cc2cccc(C(F)(F)F)c2)C1 (stereo not drawn) the “activity change, negative = inhibition” value was inactive: 3.57%.
In the case of CCc1nnc(NC(=O)CSc2nnc(Cc3ccccc3)n2-c2ccc(OC)cc2)s1, the “activity change, negative = inhibition” value is reported as inactive: 39.7%.
In the case of CCOC(=O)c1c(C)[nH]c(C(=O)Nc2cc(OCC)c(N3CCOCC3)cc2OCC)c1C, the Potency is reported as active: 14.7 µM.
With O=C(c1ccc(CS(=O)Cc2ccccc2Cl)o1)N1CCN(c2cccc(Cl)c2)CC1 (stereo not drawn) the “activity change, negative = inhibition” value was inactive: 30.6%.
For N#CCCN(C(=O)CO/N=C/c1cccc([N+](=O)[O-])c1)c1ccccc1, the Potency was inconclusive: 13.1 µM [inhibitor, single point].
With COc1ccc2[nH]c(=O)c(CN(Cc3ccc(C)cc3)Cc3nnnn3CC3CCCO3)cc2c1 (stereo not drawn) the Potency was active: 8.28 µM.
In the case of CN(c1ncnc(N)c1[N+](=O)[O-])C1CCS(=O)(=O)C1 (stereo not drawn), the “activity change, negative = inhibition” value is reported as inactive: -0.807%.
With COC(=O)c1[nH]c2ccc(C)cc2c1NC(=O)CN1CCc2cc(OC)c(OC)cc2C1 the Potency was inconclusive: 18.5 µM [inhibitor, single point].
For CC(C)C(=O)N1CCN(CCN=Cc2c(O)n(C)c(=O)n(C)c2=O)CC1, the Potency was active: 13.1 µM.
For CC(Sc1ccccc1)C(=O)Nc1ccccc1C(=O)N1CCOCC1 (stereo not drawn), the Potency was inconclusive: 10.4 µM [inhibitor, partial curve, poor fit].
With O=S(=O)(c1cccc(-c2csc(-c3cccnc3)n2)c1)N1CCOCC1 the Potency was inconclusive: 9.28 µM [inhibitor, single point].
For O=C(Nc1nccs1)c1ccccc1[N+](=O)[O-], the Potency was inconclusive: 0.0041 µM [inhibitor, full curve, poor fit].
With COc1ccc(C2N(S(=O)(=O)c3ccccc3)CCN2S(=O)(=O)c2ccc(C)cc2)cc1 (stereo not drawn) the Potency was active: 9.28 µM.
For Cc1ccc(OCC(=O)Nc2ccccc2C(N)=O)cc1, the Potency was inconclusive: 16.5 µM [inhibitor, single point].
With C=CCNC(=O)c1ccccc1S(=O)c1ccccc1C#N (stereo not drawn) the “activity change, negative = inhibition” value was inactive: 0%.
For Cc1nc2ccccn2c1C(=O)NN=C1C2CC3CC(C2)CC1C3, the “activity change, negative = inhibition” value was inactive: 50%.
In the case of CCc1nn(CC(=O)N2CCN(c3ccc(F)cc3)CC2)c(=O)c2cc3occc3n12, the “activity change, negative = inhibition” value is reported as inactive: 2.06%.
With O=C(Nc1ccc(F)c(S(=O)(=O)N2CCOCC2)c1)C1CCCCC1 the Potency was inconclusive: 13.1 µM [inhibitor, single point].
In the case of O=C(NCc1ccncc1)c1cnccn1, the Potency is reported as inconclusive: 10.4 µM [inhibitor, single point].
In the case of COc1ccc(C2CC(=O)C(C(c3ccc(O)cc3)C3C(=O)CC(c4ccc(OC)cc4)CC3=O)C(=O)C2)cc1 (stereo not drawn), the Potency is reported as inconclusive: 0.0185 µM [inhibitor, full curve, poor fit].
For CCOc1ccc(C2C(C(=O)OC)=CN(CCOC)C=C2C(=O)OC)cc1, the Potency was inconclusive: 18.5 µM [inhibitor, partial curve, poor fit].
For Cn1ncc2c(Nc3cccc([N+](=O)[O-])c3)ncnc21, the “activity change, negative = inhibition” value was inactive: -1.69%.
In the case of CC(C)NC(=S)n1cc(C(=O)c2cc(Cl)cc(Cl)c2O)cn1, the “activity change, negative = inhibition” value is reported as inactive: 38.3%.
With COC(=O)c1c(NC(=O)c2cccs2)sc2c1CCC(C)C2 (stereo not drawn) the “activity change, negative = inhibition” value was inactive: 109%.
With CC(C)Oc1ccc(S(=O)(=O)N2CCOCC2)cc1NC(=O)CCCSc1ccccc1 the Potency was inconclusive: 5.86 µM [inhibitor, partial curve, poor fit].
With O=C(Nc1ncc2c(n1)CC(c1ccco1)CC2=O)c1ccco1 (stereo not drawn) the “activity change, negative = inhibition” value was inactive: 35.6%.
In the case of CCC(C)NC(=O)CSc1nnc(-c2ccc(Cl)cc2)n1N (stereo not drawn), the “activity change, negative = inhibition” value is reported as inactive: -10.3%.
In the case of CNC(=O)c1c[nH]c2ccc(S(=O)(=O)Nc3cccc(Cl)c3C)cc2c1=O, the Potency is reported as inconclusive: 18.5 µM [inhibitor, partial curve, poor fit].
For Cc1cccc(C)c1-n1nnnc1SCC(=O)N1CCNC1=O, the “activity change, negative = inhibition” value was inactive: -10.6%.
In the case of CN(C)/C=C/C(=O)c1ccccc1, the “activity change, negative = inhibition” value is reported as inactive: -4.08%.
With O=C1C=C(c2ccc(F)cc2OCc2ccccc2)C[C@@H](c2ccc3c(c2)OCO3)C1 the Potency was inconclusive: 11.7 µM [inhibitor, single point].
For CCOC(=O)c1oc2ccc(Br)cc2c1COC(=O)C1=COCCO1, the “activity change, negative = inhibition” value was inactive: 3.41%.
For CCOC(=O)C(NC(C)=O)(NS(=O)(=O)c1ccccc1)C(F)(F)F (stereo not drawn), the Potency was inconclusive: 0.465 µM [inhibitor, full curve, poor fit].
In the case of CC(c1ccccc1)c1nnc(NC(=O)Nc2ccccc2)s1 (stereo not drawn), the Potency is reported as inconclusive: 14.7 µM [inhibitor, single point].
In the case of CCC1(CC)C(=O)N=C2c3ccccc3C(=O)N21, the Potency is reported as inconclusive: 18.5 µM [inhibitor, single point].
In the case of CCOC(=O)Cn1c(CCC(=O)O)ccc1-c1ccc(F)cc1, the Potency is reported as inconclusive: 4.15 µM [inhibitor, single point].
For CCOC(=O)c1c[nH]c2cc(OCC(C)C)c(OCC(C)C)cc2c1=O, the Potency was active: 0.0379 µM.
For COc1cccc(NC(=O)C2CC2(c2cccc(OC)c2)c2cccc(OC)c2)c1 (stereo not drawn), the Potency was inconclusive: 18.5 µM [inhibitor, single point].
In the case of CCn1nc(C(=O)NCC(c2cccs2)N2CCOCC2)c2ccccc2c1=O (stereo not drawn), the “activity change, negative = inhibition” value is reported as inactive: -18.4%.
For COc1ccccc1N(C)S(=O)(=O)c1ccc(Cl)c(C(=O)Nc2cccc(C)n2)c1, the Potency was active: 2.33 µM.
With CCOc1ccc(NC(=O)CN(C)C(=O)Cc2c[nH]c3ccccc23)cc1OCC the Potency was inconclusive: 10.4 µM [inhibitor, single point].
For O=C(NCc1nnnn1-c1ccc(F)cc1)c1ccc([N+](=O)[O-])o1, the “activity change, negative = inhibition” value was inactive: -5.9%.
For O=C(N/N=C/c1cc(Br)ccc1O)Nc1ccccc1, the Potency was active: 8.28 µM.
With CSCc1ccc(C(=O)NC(C)c2cnn(-c3ccccn3)c2C)o1 (stereo not drawn) the Potency was inconclusive: 7.38 µM [inhibitor, partial curve].
For C=CCn1c(=S)[nH]c2ccccc2c1=O, the Potency was inconclusive: 3.29 µM [inhibitor, full curve, poor fit].
With CC(=O)c1c(N2CCOCC2)nc2ccc(Br)cc2c1-c1ccccc1 the Potency was inconclusive: 11.7 µM [inhibitor, partial curve].
For c1ccc(-c2[nH]c[n+](CC3CO3)c2-c2ccccc2)cc1 (stereo not drawn), the Potency was inconclusive: 18.5 µM [inhibitor, single point].
With CCN1C(=O)[C@@H]2[C@@H](c3ccc(-c4ccc(C(C)=O)cc4)c(OC)c3)N3CCC[C@@]3(C(=O)OC)[C@@H]2C1=O the Potency was active: 6.57 µM.
For COC(=O)c1c(-c2cccs2)csc1NC(=O)CSc1ncnc2sc(C)c(C)c12, the Potency was inconclusive: 0.131 µM [inhibitor, full curve, poor fit].
With Cc1nc2cc(NC(=O)COc3ccccc3C#N)ccc2n1-c1ccccc1 the Potency was inconclusive: 13.1 µM [inhibitor, single point].
In the case of Cc1nn(-c2cccc(Cl)c2)nc1C(=O)Nc1cccc(C(=O)NC2CC2)c1, the Potency is reported as inconclusive: 18.5 µM [inhibitor, single point].
For COc1ccccc1N1CCN(C(=O)COc2cccc3ccccc23)CC1, the “activity change, negative = inhibition” value was inactive: 26.5%.
With CCC1=C(c2ccc(C)cc2)S(=O)(=O)N=C1N1CCC(C(=O)NCCCN2CCCCC2)CC1 the “activity change, negative = inhibition” value was inactive: -1.84%.
In the case of CC(C)C(=O)Nc1ccc(-c2nc3ncccc3o2)cc1, the Potency is reported as inconclusive: 18.5 µM [inhibitor, single point].
For Cc1ccccc1OCC(=O)Nc1ccc2[nH]ncc2c1, the Potency was active: 11.7 µM.
In the case of COc1cc(Br)c(C(C)NC(=O)c2ccc(C)cc2)cc1OC (stereo not drawn), the Potency is reported as inconclusive: 4.65 µM [inhibitor, partial curve, poor fit].
For CC(CCc1ccccc1)NC(=O)C(=O)NCCc1ccccc1 (stereo not drawn), the “activity change, negative = inhibition” value was inactive: 58.3%.
With Cc1cc(N=Cc2c(O)n(-c3cccc(C(F)(F)F)c3)c(=O)c3ccccc23)no1 the Potency was inconclusive: 18.5 µM [inhibitor, single point].
In the case of Cc1cc(NC(=O)c2ccc(Cl)cc2)ccc1NC(=O)c1ccccc1Cl, the Potency is reported as active: 3.7 µM.
For COc1ccc(Cl)cc1C(=O)Nc1nnn(C)n1, the “activity change, negative = inhibition” value was inactive: 20.6%.
With NC(=O)C1CCN(C(=O)Cn2cccc2C(=O)c2ccccc2)CC1 the “activity change, negative = inhibition” value was inactive: 0.482%.
For COc1cc(-c2c(-c3cccc(C)c3)oc3ccccc23)cc(OC)c1OC, the Potency was active: 9.28 µM.
In the case of Cc1ccc(S(=O)(=O)N2CCN=C2SCc2c(F)cccc2Cl)cc1, the Potency is reported as inconclusive: 18.5 µM [inhibitor, partial curve, poor fit].
In the case of CC(C)N(Cc1nc(-c2ccccc2)no1)C(=O)CN(C)S(=O)(=O)c1ccc(Br)cc1, the Potency is reported as inconclusive: 2.62 µM [inhibitor, full curve, poor fit].
In the case of Oc1ccccc1CNc1ccc(Br)cn1, the “activity change, negative = inhibition” value is reported as inactive: 130%.
With O=C([C@@H]1CCCN1C(=O)c1cccs1)N1CCN(S(=O)(=O)c2ccccc2F)CC1 the Potency was inconclusive: 18.5 µM [inhibitor, single point].
